Five molecules from article PMC7049725 can be followed below.

Chains of the proteins cited; added tags and fusions are not shown.
UniProt O60293: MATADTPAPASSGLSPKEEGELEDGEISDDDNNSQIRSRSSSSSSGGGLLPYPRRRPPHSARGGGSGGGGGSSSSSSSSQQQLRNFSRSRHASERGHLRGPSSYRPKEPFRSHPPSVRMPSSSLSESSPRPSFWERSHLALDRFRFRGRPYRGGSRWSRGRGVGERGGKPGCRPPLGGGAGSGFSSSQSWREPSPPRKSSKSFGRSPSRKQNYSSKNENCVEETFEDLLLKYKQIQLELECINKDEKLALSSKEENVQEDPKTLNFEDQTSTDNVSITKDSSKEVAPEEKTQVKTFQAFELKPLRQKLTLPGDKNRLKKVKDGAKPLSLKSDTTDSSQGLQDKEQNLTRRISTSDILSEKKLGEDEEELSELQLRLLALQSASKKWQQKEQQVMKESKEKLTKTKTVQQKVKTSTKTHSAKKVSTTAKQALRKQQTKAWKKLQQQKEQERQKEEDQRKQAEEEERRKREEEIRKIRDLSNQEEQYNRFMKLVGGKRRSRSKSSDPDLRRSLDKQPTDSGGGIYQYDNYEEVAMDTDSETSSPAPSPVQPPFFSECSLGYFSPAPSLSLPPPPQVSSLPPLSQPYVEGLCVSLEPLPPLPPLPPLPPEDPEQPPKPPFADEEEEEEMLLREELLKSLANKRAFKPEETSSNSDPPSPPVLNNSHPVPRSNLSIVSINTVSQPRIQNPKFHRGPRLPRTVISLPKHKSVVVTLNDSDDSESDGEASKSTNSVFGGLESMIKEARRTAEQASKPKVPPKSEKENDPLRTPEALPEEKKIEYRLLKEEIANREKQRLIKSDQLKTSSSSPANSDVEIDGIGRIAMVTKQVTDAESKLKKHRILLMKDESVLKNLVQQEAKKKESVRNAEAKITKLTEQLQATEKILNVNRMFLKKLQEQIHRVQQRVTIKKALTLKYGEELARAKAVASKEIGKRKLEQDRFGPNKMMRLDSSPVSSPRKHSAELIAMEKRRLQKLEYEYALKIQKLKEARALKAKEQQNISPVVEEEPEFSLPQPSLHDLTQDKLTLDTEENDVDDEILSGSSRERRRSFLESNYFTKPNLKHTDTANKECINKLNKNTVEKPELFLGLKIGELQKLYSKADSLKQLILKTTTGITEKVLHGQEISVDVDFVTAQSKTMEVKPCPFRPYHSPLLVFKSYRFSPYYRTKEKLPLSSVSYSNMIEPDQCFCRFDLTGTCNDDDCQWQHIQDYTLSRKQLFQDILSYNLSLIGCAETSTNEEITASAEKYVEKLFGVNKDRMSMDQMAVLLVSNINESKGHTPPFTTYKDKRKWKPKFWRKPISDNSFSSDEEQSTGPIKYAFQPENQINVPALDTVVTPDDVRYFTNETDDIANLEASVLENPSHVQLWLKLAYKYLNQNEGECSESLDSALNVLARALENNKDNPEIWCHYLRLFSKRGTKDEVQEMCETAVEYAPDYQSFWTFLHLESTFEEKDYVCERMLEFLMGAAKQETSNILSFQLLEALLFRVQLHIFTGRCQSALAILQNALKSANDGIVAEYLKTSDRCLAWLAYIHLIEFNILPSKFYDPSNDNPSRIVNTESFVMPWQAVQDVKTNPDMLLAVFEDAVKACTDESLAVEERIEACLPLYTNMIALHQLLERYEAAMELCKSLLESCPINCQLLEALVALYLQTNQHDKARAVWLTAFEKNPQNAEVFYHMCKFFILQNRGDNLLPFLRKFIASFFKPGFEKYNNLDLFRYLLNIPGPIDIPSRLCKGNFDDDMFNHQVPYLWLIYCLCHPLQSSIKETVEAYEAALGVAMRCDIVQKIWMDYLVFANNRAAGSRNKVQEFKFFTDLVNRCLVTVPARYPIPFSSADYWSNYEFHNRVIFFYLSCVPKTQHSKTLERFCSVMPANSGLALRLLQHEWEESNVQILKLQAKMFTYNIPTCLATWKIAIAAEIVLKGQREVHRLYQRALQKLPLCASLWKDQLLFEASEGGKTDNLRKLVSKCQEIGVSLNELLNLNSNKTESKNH
UniProt Q6NZY4: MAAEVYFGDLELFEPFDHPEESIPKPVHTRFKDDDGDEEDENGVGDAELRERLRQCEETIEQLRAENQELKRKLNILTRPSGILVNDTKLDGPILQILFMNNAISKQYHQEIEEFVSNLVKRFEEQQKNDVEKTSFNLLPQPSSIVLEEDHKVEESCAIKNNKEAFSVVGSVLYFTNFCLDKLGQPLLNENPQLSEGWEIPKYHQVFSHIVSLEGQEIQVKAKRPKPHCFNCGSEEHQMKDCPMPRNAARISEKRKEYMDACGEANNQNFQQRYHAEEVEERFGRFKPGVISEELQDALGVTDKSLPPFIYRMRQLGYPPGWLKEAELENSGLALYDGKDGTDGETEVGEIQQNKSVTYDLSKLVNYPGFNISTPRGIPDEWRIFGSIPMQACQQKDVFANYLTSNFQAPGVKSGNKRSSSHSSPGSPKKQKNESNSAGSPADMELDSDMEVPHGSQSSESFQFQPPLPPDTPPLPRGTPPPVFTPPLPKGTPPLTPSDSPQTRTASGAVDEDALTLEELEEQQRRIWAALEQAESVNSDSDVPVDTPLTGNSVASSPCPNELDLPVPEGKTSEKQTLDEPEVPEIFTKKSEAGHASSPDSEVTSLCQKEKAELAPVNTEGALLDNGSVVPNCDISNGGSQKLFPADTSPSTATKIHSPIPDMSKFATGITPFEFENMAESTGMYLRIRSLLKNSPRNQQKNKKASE

Results are given in words; binding and its absence hold for the method and conditions named. Binding seen in cells or lysates may run through a third protein. Here binding means that the protein was enriched with, or labelled near, the bait; the list need not be complete.

Assay [1] addresses MTR4-LAP (human) (UniProt P42285). The experiment in a line: affinity purification with mass spectrometry; MTR4-LAP captured with anti-GFP llama polyclonal antibodies on Dynabeads from HeLa Kyoto extract (20 mM HEPES-KOH pH 7.4, 0.5% Triton X-100, 150 mM NaCl), 4°C 30 min; label-free, triplicates, against a LAP-only control; cells treated with siLUC (control) or siZCCHC8.
Assay [2] addresses T1, MTR4-LAP (human), P42285.
T1 chain: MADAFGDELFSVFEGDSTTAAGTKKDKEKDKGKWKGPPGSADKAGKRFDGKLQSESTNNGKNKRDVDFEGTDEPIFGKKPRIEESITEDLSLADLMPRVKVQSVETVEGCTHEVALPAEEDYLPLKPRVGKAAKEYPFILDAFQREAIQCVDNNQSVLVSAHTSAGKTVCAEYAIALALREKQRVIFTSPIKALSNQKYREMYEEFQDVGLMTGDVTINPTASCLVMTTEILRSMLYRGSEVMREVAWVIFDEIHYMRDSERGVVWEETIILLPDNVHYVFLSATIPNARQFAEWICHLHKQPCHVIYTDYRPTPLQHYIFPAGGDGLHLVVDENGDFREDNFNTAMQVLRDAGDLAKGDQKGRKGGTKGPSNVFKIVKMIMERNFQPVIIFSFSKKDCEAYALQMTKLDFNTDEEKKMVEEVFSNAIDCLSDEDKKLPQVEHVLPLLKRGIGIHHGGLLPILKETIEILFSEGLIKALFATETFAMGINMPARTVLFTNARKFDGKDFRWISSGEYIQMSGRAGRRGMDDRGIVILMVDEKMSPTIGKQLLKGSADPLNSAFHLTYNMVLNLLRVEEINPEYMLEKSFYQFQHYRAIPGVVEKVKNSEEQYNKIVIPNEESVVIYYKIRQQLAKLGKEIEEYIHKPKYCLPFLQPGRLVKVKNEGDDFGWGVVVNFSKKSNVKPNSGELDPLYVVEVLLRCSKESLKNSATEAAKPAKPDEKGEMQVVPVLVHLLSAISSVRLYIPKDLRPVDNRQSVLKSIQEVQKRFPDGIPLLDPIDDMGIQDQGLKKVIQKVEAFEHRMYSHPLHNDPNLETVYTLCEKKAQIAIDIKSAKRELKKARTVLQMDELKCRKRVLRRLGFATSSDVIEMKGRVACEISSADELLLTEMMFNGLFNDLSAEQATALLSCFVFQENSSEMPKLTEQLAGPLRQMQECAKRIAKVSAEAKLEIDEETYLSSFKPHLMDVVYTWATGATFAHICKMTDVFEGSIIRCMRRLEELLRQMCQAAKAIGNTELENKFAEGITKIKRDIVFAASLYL
The description is as above. Particulars: remark: other sources report otherwise.

Turning to ZFC3H1 (from UniProt O60293 1-1989), the binding result in assay [1] is listed as “binds”.

ZCCHC8 (from UniProt Q6NZY4 1-707): the binding result in assay [1] was “binds”.

B1: RBM27 (protein, UniProt Q9P2N5 1-1060)
chain: MLIEDVDALKSWLAKLLEPICDADPSALANYVVALVKKDKPEKELKAFCADQLDVFLQKETSGFVDKLFESLYTKNYLPLLEPVKPEPKPLVQEKEEIKEEVFQEPAEEERDGRKKKYPSPQKTRSESSERRTREKKREDGKWRDYDRYYERNELYREKYDWRRGRSKSRSKSRGLSRSRSRSRGRSKDRDPNRNVEHRERSKFKSERNDLESSYVPVSAPPPNSSEQYSSGAQSIPSTVTVIAPAHHSENTTESWSNYYNNHSSSNSFGRNLPPKRRCRDYDERGFCVLGDLCQFDHGNDPLVVDEVALPSMIPFPPPPPGLPPPPPPGMLMPPMPGPGPGPGPGPGPGPGPGPGPGHSMRLPVPQGHGQPPPSVVLPIPRPPITQSSLINSRDQPGTSAVPNLASVGTRLPPPLPQNLLYTVSERQPMYSREHGAAASERLQLGTPPPLLAARLVPPRNLMGSSIGYHTSVSSPTPLVPDTYEPDGYNPEAPSITSSGRSQYRQFFSRTQTQRPNLIGLTSGDMDVNPRAANIVIQTEPPVPVSINSNITRVVLEPDSRKRAMSGLEGPLTKKPWLGKQGNNNQNKPGFLRKNQYTNTKLEVKKIPQELNNITKLNEHFSKFGTIVNIQVAFKGDPEAALIQYLTNEEARKAISSTEAVLNNRFIRVLWHRENNEQPTLQSSAQLLLQQQQTLSHLSQQHHHLPQHLHQQQVLVAQSAPSTVHGGIQKMMSKPQTSGAYVLNKVPVKHRLGHAGGNQSDASHLLNQSGGAGEDCQIFSTPGHPKMIYSSSNLKTPSKLCSGSKSHDVQEVLKKKQEAMKLQQDMRKKRQEVLEKQIECQKMLISKLEKNKNMKPEERANIMKTLKELGEKISQLKDELKTSSAVSTPSKVKTKTEAQKELLDTELDLHKRLSSGEDTTELRKKLSQLQVEAARLGILPVGRGKTMSSQGRGRGRGRGGRGRGSLNHMVVDHRPKALTVGGFIEEEKEDLLQHFSTANQGPKFKDRRLQISWHKPKVPSISTETEEEEVKEEETETSDLFLPDDDDEDEDEYESRSWRR
With B1, the binding entry in assay [1] is “binds”.

B2: ZC3H3 (protein, UniProt Q8IXZ2 1-948)
chain: MEEKEILRRQIRLLQGLIDDYKTLHGNAPAPGTPAASGWQPPTYHSGRAFSARYPRPSRRGYSSHHGPSWRKKYSLVNRPPGPSDPPADHAVRPLHGARGGQPPVPQQHVLERQVQLSQGQNVVIKVKPPSKSGSASASGAQRGSLEEFEETPWSDQRPREGEGEPPRGQLQPSRPTRARGTCSVEDPLLVCQKEPGKPRMVKSVGSVGDSPREPRRTVSESVIAVKASFPSSALPPRTGVALGRKLGSHSVASCAPQLLGDRRVDAGHTDQPVPSGSVGGPARPASGPRQAREASLVVTCRTNKFRKNNYKWVAASSKSPRVARRALSPRVAAENVCKASAGMANKVEKPQLIADPEPKPRKPATSSKPGSAPSKYKWKASSPSASSSSSFRWQSEASSKDHASQLSPVLSRSPSGDRPAVGHSGLKPLSGETPLSAYKVKSRTKIIRRRSSTSLPGDKKSGTSPAATAKSHLSLRRRQALRGKSSPVLKKTPNKGLVQVTTHRLCRLPPSRAHLPTKEASSLHAVRTAPTSKVIKTRYRIVKKTPASPLSAPPFPLSLPSWRARRLSLSRSLVLNRLRPVASGGGKAQPGSPWWRSKGYRCIGGVLYKVSANKLSKTSGQPSDAGSRPLLRTGRLDPAGSCSRSLASRAVQRSLAIIRQARQRREKRKEYCMYYNRFGRCNRGERCPYIHDPEKVAVCTRFVRGTCKKTDGTCPFSHHVSKEKMPVCSYFLKGICSNSNCPYSHVYVSRKAEVCSDFLKGYCPLGAKCKKKHTLLCPDFARRGACPRGAQCQLLHRTQKRHSRRAATSPAPGPSDATARSRVSASHGPRKPSASQRPTRQTPSSAALTAAAVAAPPHCPGGSASPSSSKASSSSSSSSSPPASLDHEAPSLQEAALAAACSNRLCKLPSFISLQSSPSPGAQPRVRAPRAPLTKDSGKPLHIKPRL
B2: the binding entry in assay [1] is given as “binds”.

B3: PABPN1, Q86U42 1-306 (protein)
chain: MAAAAAAAAAAGAAGGRGSGPGRRRHLVPGAGGEAGEGAPGGAGDYGNGLESEELEPEELLLEPEPEPEPEEEPPRPRAPPGAPGPGPGSGAPGSQEEEEEPGLVEGDPGDGAIEDPELEAIKARVREMEEEAEKLKELQNEVEKQMNMSPPPGNAGPVIMSIEEKMEADARSIYVGNVDYGATAEELEAHFHGCGSVNRVTILCDKFSGHPKGFAYIEFSDKESVRTSLALDESLFRGRQIKVIPKRTNRPGISTTDRGFPRARYRARTTNYNSSRSRFYSGFNSRPRGRVYRGRARATSWYSPY
Turning to B3, the binding entry in assay [2] is recorded as “binds”.
